PubChem BioAssay AID602196, INSERM – 2012

- Test: 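Genes whose knock-down alters cisplatin killing of lung cancer cells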
- Cells: human A549 lung cancer cells
- Knock-down reagent: siRNA pair against human genes
- Timing: 48 h transfection before cisplatin; time from cisplatin to read-out not stated
- Treatment: cisplatin at a dose killing half of control-siRNA cells; exact dose and duration not given
- Detection: 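Cisplatin cell death as a shift from the 50% death seen with control siRNA; siRNAs toxic or growth-blocking alone scored 0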
- Direction: two-siRNA summed score (-2 to +2): higher = both siRNAs protect from cisplatin killing; -2 means both sensitise; mean protection from cisplatin (shift in death) and protection from cisplatin (shift in death), siRNA C and protection from cisplatin (shift in death), siRNA D: higher = protection from cisplatin killing
- Hit rule: 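siRNAs harmful alone (LDH or WST-1) get 0; others get +1 for less and -1 for more cisplatin killing; genes are active when the two siRNAs give the same sign, summing to ±2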
- Meaning of the calls: active = both siRNAs shift cisplatin killing the same way; inactive = no consistent shift, or siRNA harmful alone
The deposit covers about 23,000 reagents; this is a random part of them. Over the whole deposit, 455 (2%) are marked active. 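Active includes both protection and sensitisation; some change values fall well beyond the stated -50 to +50 range.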 A number with no mark means an inactive call. Not stated in the record: the amount of reagent.

no.	gene symbol	two-siRNA summed score (-2 to +2)	mean protection from cisplatin (shift in death) (%)	protection from cisplatin (shift in death), siRNA C (%)	protection from cisplatin (shift in death), siRNA D (%)
1	STON1 (stonin 1)	0	0.5	5.9	-4.9
2	ONECUT2 (one cut homeobox 2)	0	4.8	-0.9	10.5
3	TREX2 (three prime repair exonuclease 2)	0	-10.6	-10.8	-10.4
4	ADAT3 (adenosine deaminase tRNA specific 3)	-1	-16.1	-6.9	-25.2
5	FOXO4 (forkhead box O4)	0	-3.5	-10.2	3.2
6	SBF1 (SET binding factor 1)	0	-1.2	9.8	-12.2
7	SCIMP (SLP adaptor and CSK interacting membrane protein)	0	-0.8	0.7	-2.2
8	NXF1 (nuclear RNA export factor 1)	0	4.4	0.7	8.1
9	SERINC5 (serine incorporator 5)	0	6.2	4.1	8.3
10	CFAP43 (cilia and flagella associated protein 43)	0	0.6	-2.7	3.8
11	CLTC (clathrin heavy chain)	1	6.6	11.3	1.9
12	LINC00640 (long independently transcribed non-coding RNA 640)	1	9.6	21	-1.8
13	CBR1 (carbonyl reductase 1)	0	-3.3	3.2	-9.9
14	TUFT1 (tuftelin 1)	0	11.6	9.7	13.4
15	LOC440919	1	13.7	14.9	12.6
16	RFC4 (replication factor C subunit 4)	0	7.3	13.1	1.5
17	LOC388214	0	15	19.3	10.6
18	ANAPC16 (anaphase promoting complex subunit 16)	0	-5.6	-3.2	-8
19	ST13 (ST13 Hsp70 interacting protein)	1	7.6	-2	17.2
20	LOC441060	0	4.7	6.7	2.7
21	TMPRSS4 (transmembrane serine protease 4)	0	7.1	9.3	4.8
22	MDGA1 (MAM domain containing glycosylphosphatidylinositol anchor 1)	1	14.1	15.8	12.4
23	IMPG2 (interphotoreceptor matrix proteoglycan 2)	0	-4	-12.9	4.8
24	TMED9 (transmembrane p24 trafficking protein 9)	0	1.8	-3.2	6.7
25	TAS1R3 (taste 1 receptor member 3)	0	16.2	23.8	8.6
26	ERP44 (endoplasmic reticulum protein 44)	0	-10.6	-5.7	-15.4
27	OPN1SW (opsin 1, short wave sensitive)	-1	-4.8	5	-14.5
28	OR51A4 (olfactory receptor family 51 subfamily A member 4)	0	6.9	7.8	5.9
29	PCDHGA4 (protocadherin gamma subfamily A, 4)	0	4.3	-1.3	9.9
30	LOC387823	0	3.5	-3.8	10.8
31	ACADVL (acyl-CoA dehydrogenase very long chain)	0	-1	12.6	-14.6
32	OVOS1P (ovostatin 1, pseudogene)	0	11.1	12.7	9.4
33	KDM3A (lysine demethylase 3A)	-1	-10	-4	-15.9
34	LOC440782	0	7.8	1.7	13.8
35	CPNE6 (copine 6)	-1	-5.5	12.4	-23.4
36	FBP2 (fructose-bisphosphatase 2)	0	4.7	7.9	1.6
37	HIVEP1 (HIVEP zinc finger 1)	0	3.9	13.9	-6
38	MED24 (mediator complex subunit 24)	-2 (active)	-19.4	-12.8	-26
39	APOBEC3F (apolipoprotein B mRNA editing enzyme catalytic subunit 3F)	0	25.5	16.2	34.8
40	ITPKA (inositol-trisphosphate 3-kinase A)	0	-4.2	4	-12.4
41	LOC400573	0	3.7	9.3	-1.8
42	COPS6 (COP9 signalosome subunit 6)	0	-3.5	-9.2	2.2
43	RBP1 (retinol binding protein 1)	1	2.7	15.4	-10
44	TLCD3A (TLC domain containing 3A)	1	12.7	24.7	0.7
45	MIA3 (MIA SH3 domain ER export factor 3)	0	9.2	11	7.4
46	ZNF233 (zinc finger protein 233)	1	7.6	8.2	6.9
47	SACK1F (scaffolding CK1 anchoring protein F)	1	13.1	6.3	19.8
48	RNF149 (ring finger protein 149)	0	13.1	18.4	7.8
49	SUPT7L (SPT7 like, STAGA complex subunit gamma)	1	13.8	8.4	19.3
50	FBXW11 (F-box and WD repeat domain containing 11)	-1	-14.9	3.9	-33.8
51	IGIP (IgA inducing protein)	1	21.3	11	31.7
52	DUT (deoxyuridine triphosphatase)	0	1.1	-1.7	3.8
53	ADGRG7 (adhesion G protein-coupled receptor G7)	0	0.7	-5.5	6.9
54	CYP4F12 (cytochrome P450 family 4 subfamily F member 12)	0	6.1	8.7	3.6
55	LOC402592	0	-0.9	-0.5	-1.3
56	PCAT4 (prostate cancer associated transcript 4)	0	10.8	15	6.6
57	NGLY1 (N-glycanase 1)	0	4	5.3	2.7
